From publication PMC12145813

Sequences of proteins named here, by UniProt entry; tags and fusion partners are left off. A change or cut given only in a name is not applied to a line headed by its entry.
UniProt Q8K4Z2: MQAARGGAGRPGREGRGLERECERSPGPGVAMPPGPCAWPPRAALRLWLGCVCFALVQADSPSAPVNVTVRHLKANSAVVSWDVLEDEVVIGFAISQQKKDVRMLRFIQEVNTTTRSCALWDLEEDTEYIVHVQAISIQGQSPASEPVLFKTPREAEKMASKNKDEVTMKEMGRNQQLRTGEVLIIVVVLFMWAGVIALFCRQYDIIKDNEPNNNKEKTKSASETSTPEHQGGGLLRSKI
UniProt Q8R4B8: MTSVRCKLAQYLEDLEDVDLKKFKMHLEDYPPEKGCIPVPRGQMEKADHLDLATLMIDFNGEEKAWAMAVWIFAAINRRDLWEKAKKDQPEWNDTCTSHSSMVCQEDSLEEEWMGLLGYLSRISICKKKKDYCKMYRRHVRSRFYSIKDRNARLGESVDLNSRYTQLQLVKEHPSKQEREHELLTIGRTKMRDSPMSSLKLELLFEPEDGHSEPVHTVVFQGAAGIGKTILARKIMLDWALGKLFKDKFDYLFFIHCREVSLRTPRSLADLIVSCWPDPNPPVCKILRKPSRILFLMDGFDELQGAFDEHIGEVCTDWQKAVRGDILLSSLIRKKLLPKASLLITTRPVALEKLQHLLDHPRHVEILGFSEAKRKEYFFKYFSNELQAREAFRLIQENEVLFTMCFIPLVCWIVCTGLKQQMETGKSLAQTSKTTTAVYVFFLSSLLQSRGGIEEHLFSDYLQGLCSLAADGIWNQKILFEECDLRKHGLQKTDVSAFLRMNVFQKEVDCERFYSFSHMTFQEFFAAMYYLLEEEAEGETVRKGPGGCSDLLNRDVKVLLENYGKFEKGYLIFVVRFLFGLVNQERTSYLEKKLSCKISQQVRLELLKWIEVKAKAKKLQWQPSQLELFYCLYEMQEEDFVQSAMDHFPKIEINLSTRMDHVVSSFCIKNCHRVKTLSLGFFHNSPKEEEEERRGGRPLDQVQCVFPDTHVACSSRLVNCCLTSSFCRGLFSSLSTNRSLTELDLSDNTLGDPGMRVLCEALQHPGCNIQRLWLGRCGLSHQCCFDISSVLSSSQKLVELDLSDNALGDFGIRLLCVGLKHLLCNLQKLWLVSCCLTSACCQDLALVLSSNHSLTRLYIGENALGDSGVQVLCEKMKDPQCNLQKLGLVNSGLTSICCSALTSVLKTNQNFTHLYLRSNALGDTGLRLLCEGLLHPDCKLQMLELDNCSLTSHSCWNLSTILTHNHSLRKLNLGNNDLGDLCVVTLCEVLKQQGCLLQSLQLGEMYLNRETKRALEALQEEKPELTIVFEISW

Assays:
[1] = biological target: irisin (mouse (endogenous in BV2)) (UniProt Q8K4Z2); experiment: co-IP; BV2 cell lysate in NP-40 buffer with protease inhibitors; 500 ug total protein with 2 ug anti-irisin antibody or IgG control overnight at 4 C, protein A/G magnetic beads 2 h; alternatively precipitated with anti-TXNIP or anti-NLRP antibodies; Western blot
[2] = biological target: irisin (mouse (endogenous in BV2)) (UniProt Q8K4Z2); experiment: as above; remark: listed apart in the source

Molecule	binding [1]	binding [2]
nucleotide-binding oligomerization domain-like receptor protein 3 (NLRP3) (from UniProt Q8R4B8 1-1033)	binds weakly	–
thioredoxin-interacting protein (TXNIP) (protein, UniProt Q8BG60-1 1-397) MVMFKKIKSFEVVFNDPEKVYGSGEKVAGRVIVEVCEVTRVKAVRILACGVAKVLWMQGSQQCKQTLDYLRYEDTLLLEEQPTAGENEMVIMRPGNKYEYKFGFELPQGPLGTSFKGKYGCVDYWVKAFLDRPSQPTQEAKKNFEVMDLVDVNTPDLMAPVSAKKEKKVSCMFIPDGRVSVSARIDRKGFCEGDDISIHADFENTCSRIVVPKAAIVARHTYLANGQTKVFTQKLSSVRGNHIISGTCASWRGKSLRVQKIRPSILGCNILKVEYSLLIYVSVPGSKKVILDLPLVIGSRSGLSSRTSSMASRTSSEMSWIDLNIPDTPEAPPCYMDIIPEDHRLESPTTPLLDDVDDSQDSPIFMYAPEFQFMPPPTYTEVDPCVLNNNNNNNNVQ	–	binds

Like-named read-outs stand apart in the source and are kept apart here. These are yes or no findings as the source states them, for the method shown. In cells and extracts the contact can be indirect. A result given as binding can be weak or reduced; the word gives no strength.
